Results as given in the supplement of paper PMC10849652.
This is one part of the list.

Chains of the proteins cited; added tags and fusions are not shown. Lines headed by an entry give the natural chain unless they say otherwise; changes in a name come on top.
UniProt Q6ZN04: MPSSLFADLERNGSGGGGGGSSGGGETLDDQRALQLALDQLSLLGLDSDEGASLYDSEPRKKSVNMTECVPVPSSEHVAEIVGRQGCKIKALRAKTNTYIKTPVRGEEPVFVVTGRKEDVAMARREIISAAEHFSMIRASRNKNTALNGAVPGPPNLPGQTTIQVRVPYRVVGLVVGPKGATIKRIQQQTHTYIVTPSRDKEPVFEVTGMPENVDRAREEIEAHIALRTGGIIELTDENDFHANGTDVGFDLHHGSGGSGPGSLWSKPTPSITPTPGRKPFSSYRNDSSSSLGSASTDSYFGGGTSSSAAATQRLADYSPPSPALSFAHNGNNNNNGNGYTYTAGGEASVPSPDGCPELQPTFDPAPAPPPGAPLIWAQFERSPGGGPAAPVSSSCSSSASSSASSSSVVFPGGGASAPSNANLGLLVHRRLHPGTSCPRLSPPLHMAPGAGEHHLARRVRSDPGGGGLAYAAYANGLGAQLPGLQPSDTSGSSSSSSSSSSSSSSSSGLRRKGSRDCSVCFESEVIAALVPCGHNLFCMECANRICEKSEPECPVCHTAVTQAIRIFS
UniProt A4D2B0: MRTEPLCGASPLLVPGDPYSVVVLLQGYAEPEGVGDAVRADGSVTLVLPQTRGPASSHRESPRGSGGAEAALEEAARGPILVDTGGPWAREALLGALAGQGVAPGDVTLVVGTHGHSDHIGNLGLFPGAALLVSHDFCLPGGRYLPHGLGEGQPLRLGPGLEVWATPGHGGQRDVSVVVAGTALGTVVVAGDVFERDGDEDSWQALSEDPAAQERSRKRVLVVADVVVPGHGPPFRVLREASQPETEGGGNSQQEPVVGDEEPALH
UniProt Q8TCB7: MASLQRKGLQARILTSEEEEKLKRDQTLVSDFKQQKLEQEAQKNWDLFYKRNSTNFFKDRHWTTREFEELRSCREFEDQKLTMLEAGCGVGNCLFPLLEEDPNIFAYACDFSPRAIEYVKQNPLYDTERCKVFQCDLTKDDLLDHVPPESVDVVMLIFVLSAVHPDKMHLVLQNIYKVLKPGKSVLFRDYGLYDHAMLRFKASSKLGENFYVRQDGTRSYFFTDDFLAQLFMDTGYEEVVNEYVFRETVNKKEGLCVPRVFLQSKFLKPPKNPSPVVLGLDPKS
UniProt O43934: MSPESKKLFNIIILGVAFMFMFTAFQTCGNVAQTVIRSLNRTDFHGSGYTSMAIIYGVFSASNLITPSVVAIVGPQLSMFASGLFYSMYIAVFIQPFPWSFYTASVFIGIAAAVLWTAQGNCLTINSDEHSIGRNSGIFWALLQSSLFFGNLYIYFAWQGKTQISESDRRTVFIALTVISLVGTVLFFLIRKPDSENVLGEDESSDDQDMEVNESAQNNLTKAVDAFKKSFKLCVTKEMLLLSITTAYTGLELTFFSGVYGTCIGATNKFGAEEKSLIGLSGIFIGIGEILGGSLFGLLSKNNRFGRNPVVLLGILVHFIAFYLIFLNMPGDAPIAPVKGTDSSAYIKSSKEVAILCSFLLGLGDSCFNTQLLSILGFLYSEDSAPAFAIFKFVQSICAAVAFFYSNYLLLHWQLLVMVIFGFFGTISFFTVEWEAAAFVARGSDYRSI
UniProt Q13503: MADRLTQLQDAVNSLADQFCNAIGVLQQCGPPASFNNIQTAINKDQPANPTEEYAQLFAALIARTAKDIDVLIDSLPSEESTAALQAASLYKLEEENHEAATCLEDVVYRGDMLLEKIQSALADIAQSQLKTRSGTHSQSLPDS
UniProt Q9NX70: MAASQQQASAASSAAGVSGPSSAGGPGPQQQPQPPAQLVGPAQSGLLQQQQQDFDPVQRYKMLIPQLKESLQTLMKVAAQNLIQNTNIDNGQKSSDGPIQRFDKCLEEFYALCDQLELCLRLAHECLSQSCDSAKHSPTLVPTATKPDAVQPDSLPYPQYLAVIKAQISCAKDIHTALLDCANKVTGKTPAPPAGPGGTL
UniProt Q8NBP5: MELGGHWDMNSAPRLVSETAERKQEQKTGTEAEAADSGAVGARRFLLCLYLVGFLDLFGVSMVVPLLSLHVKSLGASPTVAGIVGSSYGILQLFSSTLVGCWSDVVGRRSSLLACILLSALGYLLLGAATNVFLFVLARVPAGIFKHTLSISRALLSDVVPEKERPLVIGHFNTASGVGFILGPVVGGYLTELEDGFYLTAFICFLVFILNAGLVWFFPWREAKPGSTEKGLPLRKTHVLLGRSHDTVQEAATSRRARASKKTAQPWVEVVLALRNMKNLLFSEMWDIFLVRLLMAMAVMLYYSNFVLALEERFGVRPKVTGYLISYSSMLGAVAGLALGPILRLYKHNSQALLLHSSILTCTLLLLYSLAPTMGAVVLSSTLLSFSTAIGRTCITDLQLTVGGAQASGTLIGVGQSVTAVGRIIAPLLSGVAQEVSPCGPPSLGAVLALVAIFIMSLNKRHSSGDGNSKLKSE
UniProt Q02078: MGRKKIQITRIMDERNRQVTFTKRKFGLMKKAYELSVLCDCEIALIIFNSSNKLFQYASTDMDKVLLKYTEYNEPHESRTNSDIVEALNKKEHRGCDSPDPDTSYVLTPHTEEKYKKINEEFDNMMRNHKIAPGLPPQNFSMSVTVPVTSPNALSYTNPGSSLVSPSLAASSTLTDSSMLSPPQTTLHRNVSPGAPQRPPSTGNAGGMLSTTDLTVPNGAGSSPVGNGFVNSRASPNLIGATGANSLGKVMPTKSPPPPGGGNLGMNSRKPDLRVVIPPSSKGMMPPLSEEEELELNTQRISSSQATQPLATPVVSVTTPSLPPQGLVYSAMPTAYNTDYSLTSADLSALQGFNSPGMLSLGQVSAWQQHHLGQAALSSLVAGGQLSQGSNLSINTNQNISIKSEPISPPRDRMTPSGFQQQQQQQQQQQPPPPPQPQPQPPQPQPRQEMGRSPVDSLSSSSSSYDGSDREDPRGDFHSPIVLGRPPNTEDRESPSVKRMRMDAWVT
UniProt P21741: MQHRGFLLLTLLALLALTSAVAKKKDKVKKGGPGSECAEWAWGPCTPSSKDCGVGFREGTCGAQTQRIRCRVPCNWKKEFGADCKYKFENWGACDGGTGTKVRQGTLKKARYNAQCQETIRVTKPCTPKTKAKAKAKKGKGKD
UniProt Q9NS73: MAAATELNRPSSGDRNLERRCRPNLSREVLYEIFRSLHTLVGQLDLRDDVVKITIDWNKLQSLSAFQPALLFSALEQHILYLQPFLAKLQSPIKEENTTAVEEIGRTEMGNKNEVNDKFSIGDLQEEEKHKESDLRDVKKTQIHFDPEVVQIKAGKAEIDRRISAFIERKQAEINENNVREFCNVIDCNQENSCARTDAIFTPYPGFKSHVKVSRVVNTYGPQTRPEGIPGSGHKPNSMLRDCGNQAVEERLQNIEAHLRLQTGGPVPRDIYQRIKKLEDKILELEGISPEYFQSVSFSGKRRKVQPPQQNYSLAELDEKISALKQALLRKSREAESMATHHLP
UniProt Q8NHS3: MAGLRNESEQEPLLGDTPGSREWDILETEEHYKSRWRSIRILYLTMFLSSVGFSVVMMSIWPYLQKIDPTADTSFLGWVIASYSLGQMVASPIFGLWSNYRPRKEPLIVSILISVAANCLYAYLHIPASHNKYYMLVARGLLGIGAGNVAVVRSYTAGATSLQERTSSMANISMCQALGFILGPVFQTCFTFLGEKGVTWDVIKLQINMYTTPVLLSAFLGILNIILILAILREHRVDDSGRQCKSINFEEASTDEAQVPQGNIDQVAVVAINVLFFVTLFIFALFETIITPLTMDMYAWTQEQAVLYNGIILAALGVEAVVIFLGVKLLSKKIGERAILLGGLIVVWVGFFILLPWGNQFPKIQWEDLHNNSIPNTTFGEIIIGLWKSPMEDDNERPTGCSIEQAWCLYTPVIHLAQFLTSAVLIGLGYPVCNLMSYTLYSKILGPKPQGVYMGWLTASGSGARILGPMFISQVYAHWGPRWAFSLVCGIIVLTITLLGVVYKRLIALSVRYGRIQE
UniProt Q6P2C8: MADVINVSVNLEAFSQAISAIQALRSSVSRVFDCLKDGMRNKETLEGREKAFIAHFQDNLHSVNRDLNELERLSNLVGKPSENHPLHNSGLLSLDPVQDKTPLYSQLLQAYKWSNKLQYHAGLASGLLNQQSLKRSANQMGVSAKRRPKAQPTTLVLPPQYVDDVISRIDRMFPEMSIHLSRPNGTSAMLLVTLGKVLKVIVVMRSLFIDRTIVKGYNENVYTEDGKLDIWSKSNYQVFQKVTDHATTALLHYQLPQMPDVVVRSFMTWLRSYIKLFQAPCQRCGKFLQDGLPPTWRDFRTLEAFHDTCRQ
UniProt Q5U5Q3: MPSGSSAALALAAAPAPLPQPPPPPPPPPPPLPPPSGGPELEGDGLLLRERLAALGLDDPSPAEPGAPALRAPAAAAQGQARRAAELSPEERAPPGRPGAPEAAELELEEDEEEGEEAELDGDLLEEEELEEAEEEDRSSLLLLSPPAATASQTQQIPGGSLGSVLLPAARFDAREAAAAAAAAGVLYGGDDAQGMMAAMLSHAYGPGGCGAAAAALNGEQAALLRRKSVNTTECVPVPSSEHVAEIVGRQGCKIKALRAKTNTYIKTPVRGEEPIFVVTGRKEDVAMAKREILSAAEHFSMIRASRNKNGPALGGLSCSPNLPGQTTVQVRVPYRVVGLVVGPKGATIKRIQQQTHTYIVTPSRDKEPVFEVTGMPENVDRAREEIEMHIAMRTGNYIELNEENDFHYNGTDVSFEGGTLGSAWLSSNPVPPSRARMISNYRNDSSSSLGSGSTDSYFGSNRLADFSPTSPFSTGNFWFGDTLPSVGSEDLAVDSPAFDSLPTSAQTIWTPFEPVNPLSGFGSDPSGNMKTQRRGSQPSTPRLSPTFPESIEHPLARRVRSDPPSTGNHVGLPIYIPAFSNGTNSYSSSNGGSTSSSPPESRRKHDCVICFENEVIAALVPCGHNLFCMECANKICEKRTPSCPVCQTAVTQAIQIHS
UniProt O75586: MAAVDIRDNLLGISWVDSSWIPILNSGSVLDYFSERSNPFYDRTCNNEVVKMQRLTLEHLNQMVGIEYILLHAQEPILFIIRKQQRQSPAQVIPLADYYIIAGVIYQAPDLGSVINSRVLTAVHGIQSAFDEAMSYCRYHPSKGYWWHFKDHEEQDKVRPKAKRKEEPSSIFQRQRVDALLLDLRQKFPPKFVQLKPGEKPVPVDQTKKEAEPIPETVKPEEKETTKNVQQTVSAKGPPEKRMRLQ
UniProt Q9P086: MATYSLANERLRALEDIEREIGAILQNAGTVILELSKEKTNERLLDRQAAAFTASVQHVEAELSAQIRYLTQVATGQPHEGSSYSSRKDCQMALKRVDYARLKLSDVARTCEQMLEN
UniProt Q9Y4C4: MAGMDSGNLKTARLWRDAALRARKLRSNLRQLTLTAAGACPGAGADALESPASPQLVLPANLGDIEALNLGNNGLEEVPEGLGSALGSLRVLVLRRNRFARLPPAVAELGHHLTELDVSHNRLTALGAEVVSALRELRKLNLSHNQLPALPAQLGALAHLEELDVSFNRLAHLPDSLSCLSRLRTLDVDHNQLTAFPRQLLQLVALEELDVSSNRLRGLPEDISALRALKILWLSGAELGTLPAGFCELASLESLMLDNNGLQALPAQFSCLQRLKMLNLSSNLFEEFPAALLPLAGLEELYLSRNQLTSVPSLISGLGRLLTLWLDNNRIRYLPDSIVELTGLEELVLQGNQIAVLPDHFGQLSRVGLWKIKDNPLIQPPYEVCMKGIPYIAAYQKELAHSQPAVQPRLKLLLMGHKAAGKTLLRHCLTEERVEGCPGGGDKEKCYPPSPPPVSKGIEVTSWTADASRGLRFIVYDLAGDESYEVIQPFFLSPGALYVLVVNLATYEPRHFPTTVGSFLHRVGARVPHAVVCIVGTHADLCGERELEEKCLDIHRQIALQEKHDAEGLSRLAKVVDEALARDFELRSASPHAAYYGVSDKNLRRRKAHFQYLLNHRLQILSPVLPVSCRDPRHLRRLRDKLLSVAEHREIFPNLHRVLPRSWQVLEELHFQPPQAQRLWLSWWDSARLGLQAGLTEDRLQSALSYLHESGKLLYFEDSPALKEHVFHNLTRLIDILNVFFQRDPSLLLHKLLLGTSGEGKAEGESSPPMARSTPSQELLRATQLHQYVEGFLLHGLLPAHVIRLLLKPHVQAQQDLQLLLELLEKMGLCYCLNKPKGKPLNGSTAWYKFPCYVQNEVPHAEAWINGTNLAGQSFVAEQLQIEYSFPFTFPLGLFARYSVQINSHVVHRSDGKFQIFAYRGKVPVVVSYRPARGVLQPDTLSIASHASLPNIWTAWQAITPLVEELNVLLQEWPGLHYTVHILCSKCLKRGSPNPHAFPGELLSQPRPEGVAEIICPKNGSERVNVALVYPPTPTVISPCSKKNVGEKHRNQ
UniProt Q9Y3C7: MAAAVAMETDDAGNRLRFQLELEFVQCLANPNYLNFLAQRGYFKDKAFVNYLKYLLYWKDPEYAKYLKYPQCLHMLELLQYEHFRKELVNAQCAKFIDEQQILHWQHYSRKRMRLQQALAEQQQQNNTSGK
UniProt Q9NWA0: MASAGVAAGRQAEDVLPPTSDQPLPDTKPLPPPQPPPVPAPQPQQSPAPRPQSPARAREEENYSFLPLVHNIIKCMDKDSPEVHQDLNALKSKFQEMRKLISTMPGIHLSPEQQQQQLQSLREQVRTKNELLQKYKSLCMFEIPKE

Compound: CCCS(=O)(=O)Nc1ccc(F)c(C(=O)c2c[nH]c3ncc(Cl)cc23)c1F
Test: log2 fold change, soluble protein after heating vs DMSO (PISA); higher = thermal stabilisation; K562 cells, 10 uM, 30 min; active = over 0.2 and 3.5 SD of the protein, either way, in both replicates (recomputed)
Method in brief: (§1)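 Soluble protein was defined as the supernatant after 21,000xg for 90 min. It came from K562 cells at 2×10^6 cells/mL given 10 μM compound for 30 min, heated in aliquots for 3 min across 48°C-58°C, pooled, and extracted in PBS with 0.5% NP-40 at 4°C, and was quantified by TMTpro 16plex LC-MS/MS with equalised channel sums. Thermal stability against control samples, from duplicates, is reported as log2 fold change.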

log2 fold change, inactive:
METTL26 (UniProt Q96S19) 0.038, MEGF10 (UniProt Q96KG7) -0.032, MEX3B (UniProt Q6ZN04) 0.187, MBLAC1 (UniProt A4D2B0) -0.008, MBTPS2 (UniProt O43462) 0.1, METTL6 (UniProt Q8TCB7) -0.128, MFSD11 (UniProt O43934) 0.039, MED21 (UniProt Q13503) -0.069, MED29 (UniProt Q9NX70) 0.131, MGRN1 isoform 2 (UniProt O60291) -0.307, METTL9 (UniProt Q9H1A3) 0.06, MFSD9 (UniProt Q8NBP5) -0.127, MED13L (UniProt Q71F56) 0.086, MEF2A (UniProt Q02078) 0.059, MEF2A isoform 2 (UniProt Q02078) 0.009, MDK (UniProt P21741) -0.154, MBIP (UniProt Q9NS73) 0.026, MCOLN3 (UniProt Q8TDD5) 0.014, MBNL2 (UniProt Q5VZF2) -0.042, MFSD8 (UniProt Q8NHS3) 0.151, MEIS2 (UniProt O14770) 0.104, MELK (UniProt Q14680) 0.02

Compound: CCCc1cc(C)[nH]c(=O)c1CNC(=O)c1cc(-c2ccnc(N3CCN(C)CC3)c2)cc2c1cnn2C(C)C
Test: as above
Method in brief: as §1

log2 fold change, inactive:
METTL26 (UniProt Q96S19) -0.017, MFSD6 (UniProt Q6ZSS7) -0.17, MBLAC1 (UniProt A4D2B0) 0.059, MED27 (UniProt Q6P2C8) 0.046, METTL6 (UniProt Q8TCB7) -0.027, MFSD11 (UniProt O43934) -0.02, MEX3C (UniProt Q5U5Q3) -0.062, MED21 (UniProt Q13503) -0.007, MED29 (UniProt Q9NX70) 0.025, MED6 (UniProt O75586) -0.224, MED11 (UniProt Q9P086) 0.133, MFHAS1 (UniProt Q9Y4C4) -0.593, METTL9 (UniProt Q9H1A3) 0.131, MFSD9 (UniProt Q8NBP5) 0.003, MED31 (UniProt Q9Y3C7) -0.044, MEF2A isoform 2 (UniProt Q02078) 0.103, MDK (UniProt P21741) 0.03, MED9 (UniProt Q9NWA0) -0.6, MBIP (UniProt Q9NS73) 0.114, MCOLN3 (UniProt Q8TDD5) -0.481, MFSD8 (UniProt Q8NHS3) -0.046
